# Laboratory results taken from PubChem BioAssay AID939 (National Center for Advancing Translational Sciences (NCATS), 2007).
# This is one part of the list.
# Test: Confirmation Concentration-Response Assay for Agonists of the Thyroid Stimulating Hormone Receptor
# Settings: HEK293 TSHR-CNG cells, membrane potential dye, cAMP; measured here: parental HEK293 counter-screen max
# Excerpt: NIH Chemical Genomics Center [NCGC] NIH Molecular Libraries Screening Centers Network [MLSCN] MLSCN Grant: 1 X01 MH080680-01 PI Name: Dr. Marvin Gershengorn, NIH NCGC Assay Overview: Thyroid Stimulating Hormone Receptor TSH is an alpha/beta heterodimeric glycoprotein hormone secreted from the anterior pituitary gland which belongs to the glycoprotein hormone family. The actions of TSH are mediated by a seven-transmembrane receptor, which upon TSH binding couples preferentially to the G-alpha (s) protein (Gs), resulting in activation of adenylate cyclase and increase in cyclic adenosine 3', 5' monophosphate (cAMP). The TSH receptor (THSR) is mainly expressed in thyroid follicular cells and regulates their growth and function. […]
# NCGC Assay Protocol Summary: High Throughput Screening. […] 23 nl/well compound or control was then added to the assay plates, which were incubated for additional 30 min before reading a Envision fluorescence plate reader (Perkin Elmer) in bottom-read mode for fluorescence intensity (emission at 590 nm). Keywords: Thyroid-stimulating hormone TSH, TSHR, TSHR agonist, quantitative high throughput screening, qHTS, HTS, probe identification, CNG, cAMP, cyclic nucleotide gated ion channel PubChem
compound,measurement,value
Cc1nn(-c2ccccc2)c2c1P(=O)(N1CCOCC1)N(C)C(c1ccccc1)=N2 (stereo unspecified),max response,-3.63%
